No constants are given. Whether binding was seen depends on the method and setting. Binding seen in cells or lysates may run through a third protein. These calls come from enrichment with a bait or labelling near it, and not all partners need be listed.

The chains behind the UniProt entries cited, without tags or fusion partners.
UniProt Q16531: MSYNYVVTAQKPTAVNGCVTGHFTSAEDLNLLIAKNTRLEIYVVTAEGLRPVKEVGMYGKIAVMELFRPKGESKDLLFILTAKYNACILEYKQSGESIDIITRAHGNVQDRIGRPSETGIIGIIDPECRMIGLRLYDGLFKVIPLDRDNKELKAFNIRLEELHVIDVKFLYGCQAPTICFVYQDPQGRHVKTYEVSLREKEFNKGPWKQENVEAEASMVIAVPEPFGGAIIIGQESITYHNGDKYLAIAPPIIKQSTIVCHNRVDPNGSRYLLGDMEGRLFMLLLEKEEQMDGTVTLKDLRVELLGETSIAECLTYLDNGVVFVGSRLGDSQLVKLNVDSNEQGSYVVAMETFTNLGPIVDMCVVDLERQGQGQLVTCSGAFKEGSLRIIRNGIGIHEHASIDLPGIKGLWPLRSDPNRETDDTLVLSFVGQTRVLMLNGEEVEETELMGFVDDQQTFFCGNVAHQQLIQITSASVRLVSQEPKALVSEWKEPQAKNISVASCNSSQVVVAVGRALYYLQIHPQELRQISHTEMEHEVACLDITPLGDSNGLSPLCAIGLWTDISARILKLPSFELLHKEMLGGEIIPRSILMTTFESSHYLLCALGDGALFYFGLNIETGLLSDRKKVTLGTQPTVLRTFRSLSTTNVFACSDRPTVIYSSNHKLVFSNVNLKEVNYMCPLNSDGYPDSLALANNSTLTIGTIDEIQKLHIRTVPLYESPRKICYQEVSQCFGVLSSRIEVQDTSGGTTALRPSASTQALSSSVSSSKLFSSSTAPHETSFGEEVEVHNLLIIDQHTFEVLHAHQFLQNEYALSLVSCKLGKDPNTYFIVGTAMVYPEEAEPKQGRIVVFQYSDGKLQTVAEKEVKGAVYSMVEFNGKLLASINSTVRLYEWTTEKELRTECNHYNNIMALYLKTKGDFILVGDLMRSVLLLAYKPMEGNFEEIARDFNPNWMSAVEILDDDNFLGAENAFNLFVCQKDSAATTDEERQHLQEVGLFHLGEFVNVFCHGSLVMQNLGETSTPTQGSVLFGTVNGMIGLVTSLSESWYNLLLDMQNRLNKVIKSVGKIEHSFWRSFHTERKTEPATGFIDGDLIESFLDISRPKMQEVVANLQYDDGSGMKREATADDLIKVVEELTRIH
UniProt Q14209: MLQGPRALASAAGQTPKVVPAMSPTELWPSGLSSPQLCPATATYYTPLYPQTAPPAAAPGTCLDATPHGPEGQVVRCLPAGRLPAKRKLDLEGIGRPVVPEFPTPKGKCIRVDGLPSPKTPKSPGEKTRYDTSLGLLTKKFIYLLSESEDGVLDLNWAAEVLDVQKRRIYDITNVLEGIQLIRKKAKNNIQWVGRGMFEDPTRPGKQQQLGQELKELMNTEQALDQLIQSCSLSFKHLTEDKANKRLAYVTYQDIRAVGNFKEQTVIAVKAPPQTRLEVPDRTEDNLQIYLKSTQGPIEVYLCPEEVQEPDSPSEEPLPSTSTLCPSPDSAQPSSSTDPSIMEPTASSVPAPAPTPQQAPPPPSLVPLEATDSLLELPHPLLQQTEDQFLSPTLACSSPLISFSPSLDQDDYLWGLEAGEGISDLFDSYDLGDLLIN

Binding data for two substances are collected here from PMC12245033.

For the assay, the target named is T1, DCAF13 (human (endogenous in liver CSCs)) (UniProt Q9NV06).
T1 sequence: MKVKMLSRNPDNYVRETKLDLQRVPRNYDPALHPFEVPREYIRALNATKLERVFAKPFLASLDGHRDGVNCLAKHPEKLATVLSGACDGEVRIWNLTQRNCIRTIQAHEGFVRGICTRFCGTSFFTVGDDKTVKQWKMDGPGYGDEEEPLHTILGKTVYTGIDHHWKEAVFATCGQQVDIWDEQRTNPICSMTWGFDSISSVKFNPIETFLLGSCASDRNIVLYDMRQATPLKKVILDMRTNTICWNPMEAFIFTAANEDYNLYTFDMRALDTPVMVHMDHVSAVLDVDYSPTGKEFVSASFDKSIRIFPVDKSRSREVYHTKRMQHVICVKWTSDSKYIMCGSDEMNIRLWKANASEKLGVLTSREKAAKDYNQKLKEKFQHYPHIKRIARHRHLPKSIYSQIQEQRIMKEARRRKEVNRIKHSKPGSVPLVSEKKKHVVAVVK
As to the kind of experiment: affinity purification with mass spectrometry; immunoprecipitation with anti-DCAF13 antibody (IgG as control) from lysates of SNORA74A depleted liver CSCs, bands identified by mass spectrometry.

On to DDB1 (from UniProt Q16531 1-1140), for which the binding result was “binds”.
The value for E2F2 (from UniProt Q14209 1-437) was “binds”.
